Measurements published in patent US10563263B2, “Genetic polymorphisms associated with statin response and cardiovascular diseases, methods of detection and uses thereof” (CELERA CORPORATION, priority 2010, dated 2020).
Further values from the same series stand in other lists.

System: CHD
Test: Meta-analysis of CARE and WOSCOPS combined, synergy index, CHD endpoint
Assay type: in vivo, human
Conditions: for OR(R): random effect; for OR: fixed effect
Source text: Tables 4-5 provide meta-analyses of CARE and WOSCOPS combined (2nd section of each table) for two endpoints (CHD and CVD) and three genetic models (dominant, recessive, and additive), as well as logistic regression analyses of CARE (3rd section of each table) and WOSCOPS (4th section of each table) individually.
Tables 12 and 17 provide results of meta-analysis of the CARE and WOSCOPS sample sets combined by direct genotyping and by imputing genotypes.
“P” indicates the p-value, and “P(R)” (or “P.R.”) indicates the p-value random effect. Both of these are p-values corresponding to a statistical test of whether the combined synergy index is equal to one but use different assumptions to derive the p-value. “P” is calculated using a fixed effects model, and “P(R)” is calculated using a random effects model.
“OR” indicates the odds ratio (synergy index) calculated from a fixed effects model, and “OR(R)” (or “OR.R.”) indicates the odds ratio (synergy index) calculated from a random effects model.

[1] = rs1424643 allele G DOMINANT Imputed
[2] = rs1424648 allele T DOMINANT Imputed
[3] = rs1429321 allele A DOMINANT Imputed
[4] = rs1429326 allele T ADDITIVE Imputed
[5] = rs1429326 allele T DOMINANT Imputed
[6] = rs1444741 allele A DOMINANT Imputed
[7] = rs1449916 allele C DOMINANT Imputed
[8] = rs1459523 allele A ADDITIVE Imputed
[9] = rs1459523 allele A GENOTYPIC Imputed
[10] = rs1466352 allele T GENOTYPIC Imputed
[11] = rs1466353 allele G GENOTYPIC Imputed
[12] = rs1476714 allele A DOMINANT Imputed
[13] = rs1486723 allele C RECESSIVE Imputed
[14] = rs1495375 allele A ADDITIVE Imputed
[15] = rs1495375 allele A DOMINANT Imputed
[16] = rs1495381 allele T GENOTYPIC Imputed
[17] = rs1495381 allele T RECESSIVE Imputed
[18] = rs1498061 allele C ADDITIVE Imputed
[19] = rs1498992 allele G DOMINANT Imputed
[20] = rs1499001 allele T DOMINANT Imputed
[21] = rs1512988 allele A ADDITIVE Imputed
[22] = rs1512988 allele A DOMINANT Imputed
[23] = rs1512989 allele T ADDITIVE Imputed
[24] = rs1512989 allele T DOMINANT Imputed
[25] = rs1512991 allele T ADDITIVE Imputed
[26] = rs1512991 allele T DOMINANT Imputed
[27] = rs1512991 allele T GENOTYPIC Imputed
[28] = rs1524303 allele T GENOTYPIC Imputed
[29] = rs1524306 allele C ADDITIVE Imputed
[30] = rs1524306 allele C GENOTYPIC Imputed
[31] = rs1524310 allele G ADDITIVE Imputed
[32] = rs1524310 allele G GENOTYPIC Imputed
[33] = rs1524321 allele C GENOTYPIC Imputed
[34] = rs1527059 allele A DOMINANT Imputed
[35] = rs1533994 allele T GENOTYPIC Imputed
[36] = rs1535866 allele G DOMINANT Imputed
[37] = rs1563773 allele T GENOTYPIC Imputed
[38] = rs1563774 allele T GENOTYPIC Imputed
[39] = rs1567740 allele T ADDITIVE Imputed
[40] = rs1567740 allele T DOMINANT Imputed
[41] = rs1572573 allele A DOMINANT Imputed
[42] = rs1577497 allele C RECESSIVE Imputed
[43] = rs1581514 allele T ADDITIVE Imputed
[44] = rs1581514 allele T GENOTYPIC Imputed
[45] = rs1582321 allele T DOMINANT Imputed
[46] = rs1582322 allele A DOMINANT Imputed

CC[C@H](C)C(=O)O[C@H]1C[C@H](O)C=C2C=C[C@H](C)[C@H](CC[C@@H](O)C[C@@H](O)CC(=O)O)[C@H]21 [Pravastatin, pravastatin]
OR(R) (rs1424643 allele G ADDITIVE Imputed): 1.4199 | OR [1]: 1.5226 | OR(R) [1]: 1.5226 | OR [2]: 1.4456 | OR(R) [2]: 1.4456 | OR [3]: 1.4871 | OR(R) [3]: 1.4871 | OR [4]: 1.3974 | OR(R) [4]: 1.3974 | OR [5]: 1.5125 | OR(R) [5]: 1.5125 | OR [6]: 0.605 | OR(R) [6]: 0.605 | OR [7]: 0.5247 | OR(R) [7]: 0.5244 | OR [8]: 1.3969 | OR(R) [8]: 1.3969 | OR [9]: 2.0995 | OR(R) [9]: 2.0995 | OR [10]: 2.0358 | OR(R) [10]: 2.0358 | OR [11]: 2.0365 | OR(R) [11]: 2.0365 | OR [12]: 0.6713 | OR(R) [12]: 0.6713 | OR [13]: 0.4982 | OR(R) [13]: 0.4982 | OR [14]: 0.7269 | OR(R) [14]: 0.7269 | OR [15]: 0.6177 | OR(R) [15]: 0.6177 | OR [16]: 1.6918 | OR(R) [16]: 1.6918 | OR [17]: 1.7303 | OR(R) [17]: 1.7303 | OR [18]: 0.5363 | OR(R) [18]: 0.5363 | OR [19]: 0.6388 | OR(R) [19]: 0.6388 | OR [20]: 0.6155 | OR(R) [20]: 0.6155 | OR [21]: 0.7101 | OR(R) [21]: 0.7101 | OR [22]: 0.6074 | OR(R) [22]: 0.6074 | OR [23]: 0.7101 | OR(R) [23]: 0.7101 | OR [24]: 0.6074 | OR(R) [24]: 0.6074 | OR [25]: 0.7396 | OR(R) [25]: 0.7396 | OR [26]: 0.6115 | OR(R) [26]: 0.6115 | OR [27]: 0.5777 | OR(R) [27]: 0.5777 | OR [28]: 2.0455 | OR(R) [28]: 2.0455 | OR [29]: 1.3995 | OR(R) [29]: 1.3995 | OR [30]: 2.1056 | OR(R) [30]: 2.1056 | OR [31]: 1.404 | OR(R) [31]: 1.404 | OR [32]: 2.1176 | OR(R) [32]: 2.1176 | OR [33]: 2.0756 | OR(R) [33]: 2.0756 | OR [34]: 0.6321 | OR(R) [34]: 0.6321 | OR [35]: 2.0565 | OR(R) [35]: 2.0565 | OR [36]: 1.5272 | OR(R) [36]: 1.5369 | Meta-analysis OR (rs1536506, A1 (non-ref) A, A2 (ref) G): 1.49 | Meta-analysis OR (rs1538185 allele A vs G (ref)): 1.60 | Meta-analysis OR (rs1544214 allele A vs G (ref)): 1.38 | OR [37]: 2.0358 | OR(R) [37]: 2.0358 | OR [38]: 2.0374 | OR(R) [38]: 2.0374 | Meta-analysis OR (rs1564078, A1 (non-ref) G, A2 (ref) A): 0.78 | OR [39]: 0.7104 | OR(R) [39]: 0.7104 | OR [40]: 0.6056 | OR(R) [40]: 0.6056 | OR [41]: 1.64 | OR(R) [41]: 1.64 | OR [42]: 0.5263 | OR(R) [42]: 0.5263 | Meta-analysis OR (rs1580713, A1 (non-ref) A, A2 (ref) G): 1.57 | OR [43]: 1.3993 | OR(R) [43]: 1.3993 | OR [44]: 2.1081 | OR(R) [44]: 2.1081 | OR [45]: 0.6096 | OR(R) [45]: 0.6096 | OR [46]: 0.6175 | OR(R) [46]: 0.6175
